In article PMC12594568:
These are yes or no findings as the source states them, for the method shown. In cells and extracts the contact can be indirect. Some results given as binding are weak or reduced against the parent protein; the word gives no strength.

Sequences of proteins named here, by UniProt entry; tags and fusion partners are left off.
UniProt P31749: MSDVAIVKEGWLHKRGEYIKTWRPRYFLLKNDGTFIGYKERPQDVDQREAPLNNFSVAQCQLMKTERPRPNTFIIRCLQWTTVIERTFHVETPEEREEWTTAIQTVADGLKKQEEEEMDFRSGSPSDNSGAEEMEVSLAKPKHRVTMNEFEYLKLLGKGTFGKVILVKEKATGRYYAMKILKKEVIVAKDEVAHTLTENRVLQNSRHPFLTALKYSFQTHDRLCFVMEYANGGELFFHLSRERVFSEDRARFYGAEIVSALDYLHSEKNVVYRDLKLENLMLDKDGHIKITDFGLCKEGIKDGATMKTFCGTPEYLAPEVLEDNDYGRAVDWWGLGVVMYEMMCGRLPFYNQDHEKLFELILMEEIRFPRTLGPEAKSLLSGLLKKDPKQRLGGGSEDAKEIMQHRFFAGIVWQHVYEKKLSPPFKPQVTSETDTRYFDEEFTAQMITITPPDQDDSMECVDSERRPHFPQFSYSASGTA
UniProt Q86UX6: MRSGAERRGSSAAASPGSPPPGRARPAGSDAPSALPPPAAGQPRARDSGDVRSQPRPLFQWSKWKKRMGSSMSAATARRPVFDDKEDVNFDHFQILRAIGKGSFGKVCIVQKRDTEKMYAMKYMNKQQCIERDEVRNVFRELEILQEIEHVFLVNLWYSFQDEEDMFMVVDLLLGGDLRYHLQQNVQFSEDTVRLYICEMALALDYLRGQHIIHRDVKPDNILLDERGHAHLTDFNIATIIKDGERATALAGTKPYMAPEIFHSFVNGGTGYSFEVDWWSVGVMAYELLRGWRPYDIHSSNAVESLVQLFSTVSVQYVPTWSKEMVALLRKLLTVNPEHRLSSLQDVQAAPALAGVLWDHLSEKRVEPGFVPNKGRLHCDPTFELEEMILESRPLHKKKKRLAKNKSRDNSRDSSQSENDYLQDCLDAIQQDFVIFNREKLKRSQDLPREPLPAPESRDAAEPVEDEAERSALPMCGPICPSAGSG

Target: AKT1 (human (endogenous in HCT116)) (UniProt P31749)
Test: co-IP; HCT116 whole-cell lysates (500 μg) incubated overnight at 4 °C with 2 μg anti-STK32C or anti-HSP90 antibodies plus protein A/G agarose beads; Western blot; also after STK32C siRNA

binding: binds
Substance: serine/threonine kinase 32C (STK32C) (from UniProt Q86UX6 1-486)
